Results from article PMC10766641.
Positions count from the first letter of the chain named. Results are given in words; binding and its absence hold for the method and conditions named. In cells and extracts the contact can be indirect. Some entries that bind do so weakly or less than the wild type. For some assays here: Where a sequence is shown, tags or fusion partners need not be part of it.

Protein sequences, listed by entry. Tags and fused reporters are not part of them.
UniProt Q93034: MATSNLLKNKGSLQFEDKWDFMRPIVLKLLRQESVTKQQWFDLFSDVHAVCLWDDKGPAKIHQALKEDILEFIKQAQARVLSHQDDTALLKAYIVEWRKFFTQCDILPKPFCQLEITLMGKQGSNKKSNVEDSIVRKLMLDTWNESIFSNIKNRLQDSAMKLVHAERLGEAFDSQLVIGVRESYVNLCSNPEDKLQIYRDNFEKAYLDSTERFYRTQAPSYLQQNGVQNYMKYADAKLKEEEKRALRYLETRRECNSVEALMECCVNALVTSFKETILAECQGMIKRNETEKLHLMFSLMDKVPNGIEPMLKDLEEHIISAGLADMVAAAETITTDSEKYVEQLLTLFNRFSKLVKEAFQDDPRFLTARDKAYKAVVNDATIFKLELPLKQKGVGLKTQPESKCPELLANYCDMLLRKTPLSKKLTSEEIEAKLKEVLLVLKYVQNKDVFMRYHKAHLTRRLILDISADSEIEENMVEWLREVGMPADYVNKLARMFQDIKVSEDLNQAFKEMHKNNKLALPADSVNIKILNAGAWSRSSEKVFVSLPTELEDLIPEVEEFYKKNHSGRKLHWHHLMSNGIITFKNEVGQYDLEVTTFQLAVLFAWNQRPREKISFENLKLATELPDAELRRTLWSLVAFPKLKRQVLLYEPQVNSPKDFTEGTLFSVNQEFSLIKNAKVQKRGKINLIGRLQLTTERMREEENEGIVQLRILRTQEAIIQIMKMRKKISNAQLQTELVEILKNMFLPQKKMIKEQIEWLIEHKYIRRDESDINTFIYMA
UniProt Q9D5V5: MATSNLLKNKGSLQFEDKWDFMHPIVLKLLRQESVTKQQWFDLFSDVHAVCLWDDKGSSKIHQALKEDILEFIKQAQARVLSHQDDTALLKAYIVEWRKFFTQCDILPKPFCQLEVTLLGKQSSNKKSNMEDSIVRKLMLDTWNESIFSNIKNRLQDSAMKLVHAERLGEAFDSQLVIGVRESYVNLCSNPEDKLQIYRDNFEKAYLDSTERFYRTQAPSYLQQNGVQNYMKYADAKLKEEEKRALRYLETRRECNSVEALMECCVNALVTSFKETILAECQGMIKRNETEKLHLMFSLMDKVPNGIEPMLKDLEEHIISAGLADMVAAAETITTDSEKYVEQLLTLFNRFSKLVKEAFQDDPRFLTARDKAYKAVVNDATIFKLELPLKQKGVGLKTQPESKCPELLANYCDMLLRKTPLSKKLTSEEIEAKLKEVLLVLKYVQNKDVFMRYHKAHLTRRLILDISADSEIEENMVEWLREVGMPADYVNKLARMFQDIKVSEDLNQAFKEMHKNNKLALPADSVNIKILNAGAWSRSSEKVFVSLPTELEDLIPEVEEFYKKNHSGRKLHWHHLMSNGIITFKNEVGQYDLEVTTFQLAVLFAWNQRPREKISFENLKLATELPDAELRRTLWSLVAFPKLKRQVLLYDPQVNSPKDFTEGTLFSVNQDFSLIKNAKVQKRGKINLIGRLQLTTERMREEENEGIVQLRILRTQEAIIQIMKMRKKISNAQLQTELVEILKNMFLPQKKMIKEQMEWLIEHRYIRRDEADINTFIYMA

What was measured:
[1] = target: T1, Flag-OGT (O-GlcNAc transferase) (human (cDNA from THP-1 cells)) (UniProt O15294); assay: co-IP; HEK293T cells co-transfected with tagged plasmids (in some panels also Myc-SOCS3 or Myc-CUL5); lysed in cold RIPA buffer with protease inhibitors; antibodies and Protein G Agarose beads overnight at 4 °C; immunoblot
T1 sequence: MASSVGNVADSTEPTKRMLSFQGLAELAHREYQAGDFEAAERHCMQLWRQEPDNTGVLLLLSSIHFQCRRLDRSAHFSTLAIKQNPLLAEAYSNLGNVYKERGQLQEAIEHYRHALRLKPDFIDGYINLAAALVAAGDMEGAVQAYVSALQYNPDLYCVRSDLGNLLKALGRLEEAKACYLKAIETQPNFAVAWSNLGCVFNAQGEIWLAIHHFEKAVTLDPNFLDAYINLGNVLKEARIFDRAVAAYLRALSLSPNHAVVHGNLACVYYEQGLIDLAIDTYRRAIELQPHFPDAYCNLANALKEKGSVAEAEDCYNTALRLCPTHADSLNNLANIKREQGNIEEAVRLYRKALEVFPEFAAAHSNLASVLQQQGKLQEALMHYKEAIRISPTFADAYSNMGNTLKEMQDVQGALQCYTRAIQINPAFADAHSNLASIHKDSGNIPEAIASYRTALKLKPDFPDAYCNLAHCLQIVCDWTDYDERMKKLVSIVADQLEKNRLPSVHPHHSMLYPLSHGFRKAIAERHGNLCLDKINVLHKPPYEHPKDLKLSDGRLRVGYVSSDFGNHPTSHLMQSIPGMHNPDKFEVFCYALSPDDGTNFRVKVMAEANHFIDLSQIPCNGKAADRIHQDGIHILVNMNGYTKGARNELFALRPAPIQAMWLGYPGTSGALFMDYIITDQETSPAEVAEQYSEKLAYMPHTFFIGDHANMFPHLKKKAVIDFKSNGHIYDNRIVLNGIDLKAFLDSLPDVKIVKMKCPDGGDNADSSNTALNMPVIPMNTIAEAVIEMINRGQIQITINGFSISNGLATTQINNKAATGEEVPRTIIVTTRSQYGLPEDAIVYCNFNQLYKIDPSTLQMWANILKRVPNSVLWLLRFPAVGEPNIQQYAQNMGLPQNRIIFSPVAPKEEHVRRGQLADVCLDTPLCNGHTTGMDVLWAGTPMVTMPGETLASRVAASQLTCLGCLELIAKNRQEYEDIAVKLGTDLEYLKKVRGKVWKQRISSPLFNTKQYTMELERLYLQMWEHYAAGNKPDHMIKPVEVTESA

[2] = target: T2, OGT (O-GlcNAc transferase), endogenous in mouse BMDMs (mouse (endogenous in BMDMs)) (UniProt Q8CGY8); assay: co-IP; endogenous proteins in mouse BMDMs, with or without 20 μM TSLP for 4 h; RIPA lysate; antibodies and Protein G Agarose beads overnight at 4 °C; immunoblot
T2 sequence: T1 sequence with D495E, A765P, N972S, V993I

binding [1]	binding [2]	Substance
binds		Myc-CUL5 (Cullin5) (from UniProt Q93034 1-780)
	binds	CUL5 (Cullin5), endogenous in mouse BMDMs (from UniProt Q9D5V5 1-780)
